# Reference: US12360023B2, “Method of pretreating blood sample” (LABTECHS Inc., priority 2017, dated 2025)
# At least one compound was matched to its structure with a doubt left.
# How the values were obtained:
# Format in all cases: cell-based
# MRSA [1] = test: Drug susceptibility determination by ATP measurement after BAMB procedure, clinical blood sample (d); conditions: 2.0 μg/ml LVFX, 4 hours from the start of culture
# [2] = system: Proteus mirabilis and Enterococcus faecalis; test: Drug susceptibility determination by ATP measurement after BAMB procedure, clinical blood sample (e); conditions: 2.0 μg/ml LVFX, 4 hours from the start of culture
# Escherichia coli [3] = test: Rapid drug susceptibility test through ATP measurement from a blood culture bottle (Example 5); conditions: 33.3 μl of LVFX 20 μg/ml added, 35° C., 4 hours after the start of culture
# Streptococcus anginosus [4] = test: Rapid drug susceptibility test through ATP measurement from a blood culture bottle (Example 6, Case 2); conditions: 33.3 μl of LVFX 20 μg/ml added, 35° C., 4 hours after the start of culture
# MRSA [5] = test: Blood culture of clinical sample (d), susceptibility of detected bacteria; conditions: blood culture-positive
# [6] = system: Proteus mirabilis and Enterococcus faecalis; test: Blood culture of clinical sample (e), susceptibility of detected bacteria; conditions: blood culture-positive
# Escherichia coli [7] = test: Conventional drug susceptibility test (Example 5); conditions: Example 5 patient sample
# Streptococcus anginosus [8] = test: Conventional drug susceptibility test (Example 6); conditions: Example 6 patient sample
structure (smiles),measurement,setting,value
C[C@H]1COc2c(N3CCN(C)CC3)c(F)cc3c(=O)c(C(=O)O)cn1c23 [Levofloxacin],drug susceptibility determined in the ATP measurement,MRSA [1],resistant
same,drug susceptibility determined in the ATP measurement,[2],susceptible
same,drug susceptibility by microbial ATP levels,Escherichia coli [3],resistant
same,drug susceptibility by microbial ATP levels,Streptococcus anginosus [4],susceptible
same,susceptibility of bacteria detected in blood culture,MRSA [5],resistant
same,susceptibility of bacteria detected in blood culture,[6],susceptible
same,drug susceptibility in a conventional test,Escherichia coli [7],resistant
same,drug susceptibility in a conventional test,Streptococcus anginosus [8],susceptible
